Measured data: PubChem BioAssay AID1224827 (NIAID, 2016)

Screen: 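Identify regulators of the macrophage TNF-alpha response to bacterial LPS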 (follow-up of hits)
Cells: RAW264.7 G9 mouse macrophage reporter clone
Knock-down reagent: single siRNA against mouse genes, 100 nM siRNA
Timing: siRNA for 2 days, then LPS about 16 h
Conditions: bacterial lipopolysaccharide (LPS), 10 ng/ml, cells fixed after overnight (about 16 h) stimulation
Measured: 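Imaged nuclear TNF reporter intensity, background removed, scaled per plate and to non-targeting control wells, as z-scores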
Direction: TNF reporter z-score, mean and TNF reporter z-score: higher = stronger Tnf promoter reporter signal; gene median z, three same-vendor siRNAs: higher = stronger Tnf reporter signal for the gene
Hit rule: 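An siRNA is called active when its mean z-score over replicates is at least +2 or at most -2; control wells get no call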
This is one part, drawn at random, of about 3,800 deposited reagents. About 2,200 of them (57%) were called active. 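Active means a strong reporter change in either direction; calls are per siRNA, not per gene; qiagen siRNAs gave weaker effects.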 The numbers tell different reagents against one gene apart. No sequences are given here.

| Target gene | reagent | TNF reporter z-score, mean | gene median z, three same-vendor siRNAs | TNF reporter z-score, repeat 1 | TNF reporter z-score, repeat 2 | activity call |
| --- | --- | --- | --- | --- | --- | --- |
| Bmp2 | 1 | -0.333 | -1.91 | -1.61 | 0.948 | inactive |
| Bmp2 | 2 | -1.94 | -1.91 | -2.03 | -1.84 | inactive |
| Bmp2 | 3 | -2.88 | -1.91 | -1.98 | -3.77 | active |
| Bmp2 | 4 | 1.95 | 0.105 | 3.49 | 0.41 | inactive |
| Bmp2 | 5 | 2.43 | 0.105 | 5.05 | -0.2 | active |
| Bmp2 | 6 | -1.06 | 0.105 | -0.982 | -1.13 | inactive |
| C730034F03Rik | 1 | 0.381 | -2.43 | -1.51 | 2.27 | inactive |
| C730034F03Rik | 2 | -3.31 | -2.43 | -1.6 | -5.02 | active |
| C730034F03Rik | 3 | -3.81 | -2.43 | -4.36 | -3.26 | active |
| C730034F03Rik | 4 | 4.11 | 0.642 | 6.5 | 1.72 | active |
| C730034F03Rik | 5 | 1.34 | 0.642 | 3.12 | -0.435 | inactive |
| C730034F03Rik | 6 | -1.72 | 0.642 | -2.37 | -1.08 | inactive |
| Adamts7 | 1 | 1.1 | -0.321 | 2.01 | 0.2 | inactive |
| Adamts7 | 2 | -0.321 | -0.321 | -0.539 | -0.103 | inactive |
| Adamts7 | 3 | -4.43 | -0.321 | -4.01 | -4.84 | active |
| Adamts7 | 4 | 6.23 | 3.2 | 10.8 | 1.7 | active |
| Adamts7 | 5 | 2.72 | 3.2 | 5.14 | 0.307 | active |
| Adamts7 | 6 | 1.38 | 3.2 | 4.7 | -1.94 | inactive |
| Ndrg4 | 1 | -1.26 | -3.52 | -0.813 | -1.71 | inactive |
| Ndrg4 | 2 | -3.52 | -3.52 | -3.99 | -3.04 | active |
| Ndrg4 | 3 | -4.51 | -3.52 | -4.28 | -4.74 | active |
| Ndrg4 | 4 | 3.97 | 0.932 | 5.93 | 2.01 | active |
| Ndrg4 | 5 | 0.649 | 0.932 | 0.672 | 0.625 | inactive |
| Ndrg4 | 6 | -0.134 | 0.932 | 1.19 | -1.46 | inactive |

Targets listed so far whose gene name begins with N or n (6):
| Target gene | reagent | TNF reporter z-score, mean | gene median z, three same-vendor siRNAs | TNF reporter z-score, repeat 1 | TNF reporter z-score, repeat 2 | activity call |
| --- | --- | --- | --- | --- | --- | --- |
| Ndrg4 | 1 | -1.26 | -3.52 | -0.813 | -1.71 | inactive |
| Ndrg4 | 2 | -3.52 | -3.52 | -3.99 | -3.04 | active |
| Ndrg4 | 3 | -4.51 | -3.52 | -4.28 | -4.74 | active |
| Ndrg4 | 4 | 3.97 | 0.932 | 5.93 | 2.01 | active |
| Ndrg4 | 5 | 0.649 | 0.932 | 0.672 | 0.625 | inactive |
| Ndrg4 | 6 | -0.134 | 0.932 | 1.19 | -1.46 | inactive |

Further entries follow.
| Target gene | reagent | TNF reporter z-score, mean | gene median z, three same-vendor siRNAs | TNF reporter z-score, repeat 1 | TNF reporter z-score, repeat 2 | activity call |
| --- | --- | --- | --- | --- | --- | --- |
| Man2b2 | 1 | -2.98 | -3.75 | -1.8 | -4.16 | active |
| Man2b2 | 2 | -3.17 | -3.75 | -2.68 | -3.66 | active |
| Man2b2 | 3 | -4.3 | -3.75 | -3.84 | -4.76 | active |
| Man2b2 | 4 | 2.27 | 0.0862 | 4.22 | 0.324 | active |
| Man2b2 | 5 | 0.0862 | 0.0862 | -0.0397 | 0.212 | inactive |
| Man2b2 | 6 | -1.54 | 0.0862 | -0.972 | -2.11 | inactive |
| Fat4 | 1 | 7.35 | 4.59 | 7.72 | 6.98 | active |
| Fat4 | 2 | 4.59 | 4.59 | 3.26 | 5.92 | active |
| Fat4 | 3 | -3.95 | 4.59 | -3.85 | -4.05 | active |
| Fat4 | 4 | 2.13 | 0.884 | 3.59 | 0.656 | active |
| Fat4 | 5 | 0.903 | 0.884 | 1.09 | 0.718 | inactive |
| Fat4 | 6 | 0.15 | 0.884 | 1.05 | -0.752 | inactive |
| Dclre1b | 1 | 0.97 | -2.96 | 0.516 | 1.42 | inactive |
| Dclre1b | 2 | -2.96 | -2.96 | -3.22 | -2.69 | active |
| Dclre1b | 3 | -3.98 | -2.96 | -3.97 | -3.98 | active |
| Dclre1b | 4 | 0.958 | -0.765 | 2.47 | -0.558 | inactive |
| Dclre1b | 5 | 0.8 | -0.765 | 2.67 | -1.07 | inactive |
| Dclre1b | 6 | -1.25 | -0.765 | -0.972 | -1.54 | inactive |
| Rpn2 | 1 | -3.73 | -4.13 | -3.54 | -3.91 | active |
| Rpn2 | 2 | -4.37 | -4.13 | -4.39 | -4.35 | active |
| Rpn2 | 3 | -4.41 | -4.13 | -5.01 | -3.81 | active |
| Rpn2 | 4 | 1.29 | -0.64 | 3.48 | -0.901 | inactive |
| Rpn2 | 5 | 1.07 | -0.64 | 3.07 | -0.925 | inactive |
| Rpn2 | 6 | -1.32 | -0.64 | -0.378 | -2.26 | inactive |
| Trim67 | 1 | 1.56 | -1.83 | 1.64 | 1.48 | inactive |
| Trim67 | 2 | -1.83 | -1.83 | -2.99 | -0.674 | inactive |
| Trim67 | 3 | -3.84 | -1.83 | -3.73 | -3.95 | active |
| Trim67 | 4 | 0.27 | -0.785 | 1.24 | -0.697 | inactive |
| Trim67 | 5 | 0.436 | -0.785 | 2.57 | -1.7 | inactive |
| Trim67 | 6 | -1.22 | -0.785 | -0.872 | -1.56 | inactive |
| Gata3 | 1 | -0.546 | -2.91 | -0.557 | -0.535 | inactive |
| Gata3 | 2 | -2.91 | -2.91 | -3.69 | -2.13 | active |
| Gata3 | 3 | -4.39 | -2.91 | -4.68 | -4.1 | active |
| Gata3 | 4 | 4.65 | 1.3 | 6.87 | 2.42 | active |
| Gata3 | 5 | 2.27 | 1.3 | 4.57 | -0.0278 | active |
| Gata3 | 6 | -1.06 | 1.3 | 0.173 | -2.3 | inactive |
